Measurements taken from patent US20150037335A1.
No constants are given. Whether binding was seen depends on the method and setting. Some results given as binding are weak or reduced against the parent protein; the word gives no strength. Where a sequence is shown, tags or fusion partners need not be part of it.

What was measured:
[1] = target: T1, BDNF (from R and D systems) (Homo sapiens (Human)) (UniProt P23560); test: SPR (Biacore), p75NTR(NBP)-Fc immobilised, BDNF injected
T1 sequence: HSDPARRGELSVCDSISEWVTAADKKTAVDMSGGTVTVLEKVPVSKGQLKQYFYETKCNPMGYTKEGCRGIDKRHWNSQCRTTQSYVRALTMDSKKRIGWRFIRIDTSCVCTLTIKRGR

[2] = target: T1, BDNF (from R and D systems) (Homo sapiens (Human)); test: SPR (Biacore), p75NTR(NBP)-Fc immobilised, BDNF 20 nM injected
[3] = target: T1, BDNF (from R and D systems) (Homo sapiens (Human)); test: SPR (Biacore), p75NTR(NBP)-Fc immobilised on the chip, 20 nM BDNF injected for 30 s at 50 ul/min

Measured: binding

B1: p75NTR(NBP)-Fc (p75NTR(NBP) SEQ ID NO. 2 coupled to IgG-Fc SEQ ID NO. 12 using linker SEQ ID NO 17) (Fc fusion)
chain: KEACPTGLYTHSGECCKACNLGEGVAQPCGANQTVCEPCLDSVTFSDVVSATEPCKPCTECVGLQSMSAPCVEADDAVCRCAYGYYQDETTGRCEACRVCEAGSGLVFSCQDKQNTVCEECPDGTYSDEANHVDPCLPCTVCEDTERQLRECTRWADAECEEIPGRWITRSTPPEGSDSTAPSTQEPEAPPEQDLIASTVAGVVTTVMGSSQPVVTRGTTDNGGGGSASTKGPSVFPLAPCSRSTSESTAALGCLVKDYFPEPVTVSWNSGALTSGVHTFPAVLQSSGLYSLSSVVTVTSSNFGTQTYTCNVDHKPSNTKVDKTVERKCCVECPPCPAPPVAGPSVFLFPPKPKDTLMISRTPEVTCVVVDVSHEDPEVQFNWYVDGMEVHNAKTKPREEQFNSTFRVVSVLTVVHQDWLNGKEYKCKVSNKGLPAPIEKTISKTKGQPREPQVYTLPPSREEMTKNQVSLTCLVKGFYPSDIAVEWESNGQPENNYKTTPPMLDSDGSFFLYSKLTVDKSRWQQGNVFSCSVMHEALHNHYTQKSLSLSPGK
binds: all assays above
